The target of the experiment is CXADR protein expressed on Ba/F3 cells (CXADR-expressing cells) (human) (UniProt P78310). The experiment in a line: flow cytometry, hybridoma antibody on Ba/F3 cells expressing CXADR. On the technique in general: Flow cytometry measures light scatter and fluorescence of single cells or particles in a stream.

By UniProt entry, the sequences of proteins in these tests, tags left out. Residues count along the entry.
UniProt P78310, residues 20-365: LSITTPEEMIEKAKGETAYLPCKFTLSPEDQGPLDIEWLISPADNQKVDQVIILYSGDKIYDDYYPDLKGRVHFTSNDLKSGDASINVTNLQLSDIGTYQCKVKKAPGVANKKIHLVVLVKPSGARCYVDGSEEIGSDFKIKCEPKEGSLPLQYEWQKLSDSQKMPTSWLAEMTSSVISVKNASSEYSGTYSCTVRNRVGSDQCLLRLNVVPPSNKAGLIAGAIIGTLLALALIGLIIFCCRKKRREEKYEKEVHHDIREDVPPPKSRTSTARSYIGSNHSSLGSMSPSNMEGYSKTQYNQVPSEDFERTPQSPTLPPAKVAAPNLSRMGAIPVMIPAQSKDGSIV

Residue numbers refer to the chain shown, from its start. Results are given in words; binding and its absence hold for the method and conditions named. Some results given as binding are weak or reduced against the parent protein; the word gives no strength.

B1: anti-CXADR antibody 7F8A (antibody, V domains shown)
VH: DVQLQESGPGLVKPSQTVSLTCTVTGYSITNGNHWWNWIRQVSGSKLEWIGYINSSGSTDSNPSLKSRISITRDTSKNQLFLQLNSVTIEDIATYYCARDDYYFDYWGQGTTLTVSS
VL: DIQMTQSPASLSASVGETVTITCRASENIDSYLAWYQQKQGKSPQLLVYAATLLADGVPSRFSGSGSGTQYSLKINSLQSEDVARYYCQHYYSTPLTFGAGTKLELKR
notes: also called 7F8A clone
Take B1: the binding entry is on record as “binds”.

B2: anti-CXADR antibody 6G10A (antibody, V domains shown)
VH: QVQLQQPGAELVKPGASVKLSCKASGYTFTSYWINWVKQRPGQGLEWIGNIYPGSSSTKYNEKFKSKATLTVDTSSSTAHMQLSSLTSDDSAVYYCAKGDGDYFADWGQGTLVTVSA
VL: B1 VL with L96W, A100G, L106I
With B2, the binding result is listed as “binds”.

The record behind these values is patent publication US20150140018A1 (MEDICAL AND BIOLOGICAL LABORATORIES, published 2015).
